PubChem BioAssay AID1159578 – Peter MacCallum Cancer Centre | 2015

Test: 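Knock-downs that alter how fast lymphatic endothelial cells migrate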 (primary screen)
Cells: human lymphatic endothelial cells
Reagent: siRNA pool against human genes, 40 nM
Duration: 48 h after transfection
Measurement: 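High-content imaging of dye-stained cells in a scratch assay measures filled wound area and nuclei per well; duplicate means given as ratio to mock and robust z-score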
Reading the numbers: migration robust z-score: higher = faster migration into the scratch; nuclei per well: higher = more cells in the well
Active means: 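Migration changed when robust z exceeds 2 or falls below -2 and mean nuclei number is at least 3300; otherwise not called changed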
Meaning of the calls: active = migration changed; inactive = no migration change, or too few cells
Here is an unselected part of about 18,000 deposited reagents. About 1,030 of all reagents (5.7%) were called active. 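Inactive calls also include pools with fewer than 3300 nuclei, whose migration was not assessed.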 The raw values are shown without normalisation. Further read-outs or replicates are left out here.

VWC2L (von Willebrand factor C domain containing 2 like) | migration robust z-score = 0.58; nuclei per well, duplicate mean = 6171; Call = inactive
EP300 (EP300 lysine acetyltransferase) | migration robust z-score = 0.03; nuclei per well, duplicate mean = 4994; Call = inactive
S100A5 (S100 calcium binding protein A5) | migration robust z-score = 1.43; nuclei per well, duplicate mean = 6226; Call = inactive
HSD17B6 (hydroxysteroid 17-beta dehydrogenase 6) | migration robust z-score = 0.76; nuclei per well, duplicate mean = 7438; Call = inactive
NPAS3 (neuronal PAS domain protein 3) | migration robust z-score = 0.72; nuclei per well, duplicate mean = 5612; Call = inactive
KLK4 (kallikrein related peptidase 4) | migration robust z-score = -1.03; nuclei per well, duplicate mean = 5216; Call = inactive
LAP3 (leucine aminopeptidase 3) | migration robust z-score = -1.22; nuclei per well, duplicate mean = 5492; Call = inactive
ZFPM2 (zinc finger protein, FOG family member 2) | migration robust z-score = -1.71; nuclei per well, duplicate mean = 4909; Call = inactive
CR2 (complement C3d receptor 2) | migration robust z-score = 0.36; nuclei per well, duplicate mean = 5400; Call = inactive
ZFYVE28 (zinc finger FYVE-type containing 28) | migration robust z-score = -0.41; nuclei per well, duplicate mean = 5924; Call = inactive
ZNF613 (zinc finger protein 613) | migration robust z-score = 1.35; nuclei per well, duplicate mean = 5014; Call = inactive
PRDM10 (PR/SET domain 10) | migration robust z-score = 0.37; nuclei per well, duplicate mean = 6160; Call = inactive
CAMK2N1 (calcium/calmodulin dependent protein kinase II inhibitor 1) | migration robust z-score = 0.88; nuclei per well, duplicate mean = 5620; Call = inactive
SPATA19 (spermatogenesis associated 19) | migration robust z-score = 2.05; nuclei per well, duplicate mean = 5890; Call = active

Entries listed above called active (1):
SPATA19 (spermatogenesis associated 19) | migration robust z-score = 2.05; nuclei per well, duplicate mean = 5890; Call = active
